According to patent publication US7842499B2, “Substrates, devices, and methods for cellular assays” (Platypus Technologies, LLC, priority 2006, dated 2010):

Columns and labels:
3T3 cells = test: Survey of liquid crystals for alignment by cells; settings: cultured 3T3 cells
[1] = Investigation of phospholipid influence on liquid crystal alignment; set-up: key: C=cholesteric alignment; U=unaligned; H=homeotropically aligned; settings: for Liquid crystal alignment, Chol: cholesterol on glass slide
[2] = 2 ul 0.01 M in chloroform on glass slide

SMILES | Liquid crystal alignment, 3T3 cells (3T3 cells) | Liquid crystal alignment, DOLPC [1, 2] | Liquid crystal alignment, DOPA ([1]; DOPA, 2 ul 0.01 M in chloroform on glass slide) | Liquid crystal alignment, DOPC [1, 2] | Liquid crystal alignment, DOPE [1, 2] | Liquid crystal alignment, DOPG [1, 2] | Liquid crystal alignment, DOPS [1, 2] | Liquid crystal alignment, Chol [1]
CCCCCC[C@H]1CC[C@H](c2ccc(N=C=S)cc2)CC1 [6CHBT, 1-(trans-4-hexylcyclohexyl)-4-isothiocyanato-benzene] | Homeotropic | H | H | H | H | H | U | U
CCCCCCCCc1ccc(-c2ccc(C#N)cc2)cc1 [4OCB, 4′-octyl-4-biphenyl-carbonitrile] | Homeotropic |  |  |  |  |  |  | 
CCCCCc1ccc(-c2ccc(C#N)cc2)cc1 [5CB, 4-cyano-4′-pentylbiphenyl] | Homeotropic | H |  | H | H | H | U | U
